Tested on: solid phase comprising 3C3 antibody
Test: Biotin interference in the non-specific binding of A4-7-AE conjugates, ADVIA Centaur assay on native serum
Set-up: species or system sheep
Details: for Biotin Interference: change between sample without biotin and with biotin 100 ng/mL; for Sample with Biotin, assay measured concentration of androstenedione / Sample Without Biotin, assay measured concentration of androstenedione: native serum approximately 2.2 ng/mL androstenedione; for Sample with Biotin, assay measured concentration of androstenedione: biotin 100 ng/mL; for Sample Without Biotin, assay measured concentration of androstenedione: no biotin

| SMILES | Biotin Interference [%] | Sample with Biotin, assay measured concentration of androstenedione [ng/mL] | Sample Without Biotin, assay measured concentration of androstenedione [ng/mL] |
| --- | --- | --- | --- |
| Cc1cc(C(=O)NCCC[N+](C)(CCCNC(=O)CCSC2CC3=CC(=O)CCC3(C)C3CCC4(C)C(=O)CCC4C23)CCCS(=O)(=O)[O-])cc(C)c1OC(=O)c1c2ccccc2[n+](CCCS(=O)(=O)[O-])c2ccccc12 (stereo not drawn) [compound 6, A4(7α)-CETE-NH-Z-ZAE] | 7.4 | 2.33 | 2.17 |
| Cc1cc(C(=O)NCCC[N+](C)(CCCNC(=O)CCC2CC3=CC(=O)CCC3(C)C3CCC4(C)C(=O)CCC4C23)CCCS(=O)(=O)[O-])cc(C)c1OC(=O)c1c2ccccc2[n+](CCCS(=O)(=O)[O-])c2ccccc12 (stereo not drawn) [A4-carbon-ZAE(α), A4(7α)-propionamide-Z-ZAE] | 0.6 | 2.25 | 2.23 |
| Cc1cc(C(=O)NCCC[N+](C)(CCCNC(=O)CCC2CC3=CC(=O)CCC3(C)C3CCC4(C)C(=O)CCC4C23)CCCS(=O)(=O)[O-])cc(C)c1OC(=O)c1c2ccccc2[n+](CCCS(=O)(=O)[O-])c2ccccc12 (stereo not drawn) [A4-carbon-ZAE(β), A4(7β)-propionamide-Z-ZAE] | 0.4 | 2.23 | 2.22 |
